Laboratory results: patent US20250269047A1
No constants are given. Whether binding was seen depends on the method and setting. Binding can be weak; no strength is given.

The chains behind the UniProt entries cited, without tags or fusion partners. Where a name states a change or a piece, a line headed by the entry shows the natural chain unless it says otherwise.
UniProt Q5ZPR3: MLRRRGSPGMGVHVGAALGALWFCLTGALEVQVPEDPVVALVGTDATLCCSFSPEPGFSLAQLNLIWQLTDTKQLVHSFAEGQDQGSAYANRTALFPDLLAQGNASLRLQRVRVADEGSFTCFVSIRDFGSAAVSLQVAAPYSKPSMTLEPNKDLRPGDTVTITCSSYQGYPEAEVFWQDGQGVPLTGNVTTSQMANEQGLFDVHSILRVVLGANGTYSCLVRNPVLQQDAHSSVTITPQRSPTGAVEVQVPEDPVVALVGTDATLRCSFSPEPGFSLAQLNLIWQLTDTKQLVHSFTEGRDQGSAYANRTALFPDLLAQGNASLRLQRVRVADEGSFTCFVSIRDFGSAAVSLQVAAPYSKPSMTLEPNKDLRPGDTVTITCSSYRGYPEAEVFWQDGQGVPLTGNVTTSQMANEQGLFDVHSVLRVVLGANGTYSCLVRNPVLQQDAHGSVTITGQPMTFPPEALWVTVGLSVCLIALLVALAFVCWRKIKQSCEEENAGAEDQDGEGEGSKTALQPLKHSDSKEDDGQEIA

Columns and labels:
[1] = target: T1, recombinant human B7-H3-his extracellular domain protein (UniProtKB-Q5ZPR3, 1 aa-461 aa) (human) (UniProt Q5ZPR3); assay: ELISA, plate coated with recombinant human B7-H3-his ECD (20 ng/ml), hybridoma culture supernatant, HRP goat anti-mouse IgG (Fcγ)
[2] = target: T1, recombinant human B7-H3-his extracellular domain protein; assay: BLI (Octet QKe), antibody on AHC biosensor
[3] = target: T1, recombinant human B7-H3-his extracellular domain protein; assay: ELISA, coated antigen 0.2 µg/ml, one antibody concentration
[4] = target: recombinant monkey B7-H3-his extracellular domain protein (XP-005560056.1, 1 aa-465 aa) (monkey); assay: as above

| Binder | binding [1] | binding [2] | binding [3] | binding [4] |
| --- | --- | --- | --- | --- |
| 445 (antibody, V domains shown) VH: EVQLQQSGPELVRPGVSVKISCKGSGYSFTDYAIHWVKQSHAMSLEWIGIINTYYGNTNYNQKFKGKATMTVDKSSSTAYMELARLTSADSAIYYCARSTTTATFYWYFDVWGAGTTVSVSS VL: DIVLTQSPVTLSVTPGDSVSLSCRASQSINNNLHWYQQKPHESPRLLIKYASQSISGIPSRFSGSGSGTDFTLSFNSVETEDFGMYFCQQSHSWPYTFGGGTKLEIK | binds |  |  |  |
| 485 (antibody, V domains shown) VH: EVQLQQSGPELVKPGASVKISCKTSGYTFTEYIMHWVKQSHGKSLEWIGGINPNNGGTTYNQKFKGKATLTVDKSSSTAYMELRSLTSEDSAVYYCARKGKDYFDWYFDVWGAGTTVTVSS VL: QIVLTQSPTIMSASPGEKVTMTCSASSSVSYMHWYQQKSGTSPKRWIYDTSKLASGVPARFSGSGSGTSYSLTISSMEAEDAATYYCQQWSSNPLTFGAGTKLELK | binds |  |  |  |

More lines, now with the values ahead:

| binding [1] | binding [2] | binding [3] | binding [4] | Binder |
| --- | --- | --- | --- | --- |
|  | binds | binds | binds | ch9B11 (antibody, human IgG1, V domains shown) VH: EVQLQQSGPELVRPGVSVKISCKGSGYSFTDYAIHWVKQSHAMSLEWIGIINTYYGNTNYNQKFKGKATMTVDKSSSTAYMELARLTSADSAIYYCARSTTTATFYWYFDVWGAGTTVSVSS VL: DIVLTQSPVTLSVTPGDSVSLSCRASQSINNNLHWYQQKPHESPRLLIKYASQSISGIPSRFSGSGSGTDFTLSFNSVETEDFGMYFCQQSHSWPYTFGGGTKLEIK |
|  | binds | binds |  | ch10B4 (antibody, human IgG1, V domains shown) VH: EVQLQQSGPELVKPGASVKISCKTSGYTFTEYIMHWVKQSHGKSLEWIGGINPNNGGTTYNQKFKGKATLTVDKSSSTAYMELRSLTSEDSAVYYCARKGKDYFDWYFDVWGAGTTVTVSS VL: QIVLTQSPTIMSASPGEKVTMTCSASSSVSYMHWYQQKSGTSPKRWIYDTSKLASGVPARFSGSGSGTSYSLTISSMEAEDAATYYCQQWSSNPLTFGAGTKLELK |
